Measurements taken from patent US20200199207A1.
Substitutions are numbered along the chain they refer to. Results are given in words; binding and its absence hold for the method and conditions named. For part of these data: Binding can be weak; no strength is given.

B1: h32B10 (antibody, V domains shown)
VH: QVQLVQSGAEVKKPGASVKVSCRASGYIFRNFDINWVRQATGQGLEWMGWMSPKSGDTGYAQKFQGRVTMTRDTSINTAYMELSSLTSEDSAVYYCARGVDGTNWGQGTRVTVSS
VL: DIVMTQSPDSLGVSLGERATISCKSSQSILDNSNNKNFIAWFQQKPGQPPKLLIYWASARESGVPDRFSGSGSGTEFTLTINSLQAEDVAVYYCYQYYSTPHTFGQGTKLDLR
B2: h37D5 (antibody, V domains shown)
VH: EEQLVESGGRLLRPGESLSLSCAAVGFNFGDFGMAWVRQPPGKGLEWVAGINWSGHSTGFVDSMKGRLTISRDSAKSSLFLQMNSLRGEDTAVYYCARVGRLCSGDICDSMGAFDLWGQGTMVTVSS
VL: DIQMTQSPSTLSASIGDRVTITCRASQTIDNWLAWYQQRPGKAPKLLIYQASSLQSGVSSRFRGSGSGTEFTLTITSLQPDDFATYYCQKSNGYSRTFGQGTKVEIK
B3: h12G10 (antibody, human IgG1, V domains shown)
VH: EVQLLESGGRLLRPGGSLSLSCVASGFYFGDFGMSWVRQVPGKGLEWVSGIDWSGRSTGYVDSMKGRLTISRDNDKSSLYLQMNDLRGEDTAVYYCARVGRLCSGDSCDSMGAFDLWGQGTMVTVSS
VL: B2 VL with M4L, R18S, T28N, R39K, K45R, Q50K, Q55G, R61K, S67F, E105D
B4: h4B2 (antibody, V domains shown)
VH: QVQLQEAGPRLVKPSQTLSVTCTVSGASITIGGYYWSWIRQHPGKGLEWMGYIYSNGRTYYNPSLKSRIAMSIDTSKNQFSLKLTSVTAADTAIYFCAREAWETPLWGQGTLITVSS
VL: DIQMTQSPSSLSASVGDRVTITCQANQDIVNSLNWFQHKPGTAPKVLIYDASKLETGVPSRFSGSGSGTHFTFTISGLQPEDFATYFCQQYENLPHTFGQGTKLEIR
B5: h2F8 (antibody, V domains shown)
VH: EVQLVESGGGLVKPGGSLRLSCAASGFIFSDYNMNWVRQAPGKGLEWVSSITRSSRTIYYADSVKGRFTISRDNAKNSLHLQMNSLRDADTAVYYCAREDFDVSTGPYYMDVWGNGTTVIVSS
VL: EIVLTQSPGTLSLSPGERATLSCRASQSVSNMFLVWYQQKPGQAPRLLMYGASTRATDIPDRFSGSGSGTDFTLTISRLEPEDFAVYYCQQNGNSPYTFGQGTKLEIK
B6: h7G6 (antibody, V domains shown)
VH: QVQLVESGGGVVQPGRSLRLSCAASGIAFNDYTMHWVRRSPDKGLEWVAAISYGGTNKYYADSVKGRFTISRDSSKNTLFLQMDSLRVEDTAVYYCARDSGYRSLLHWGQGTLVTVSS
VL: EIVLTQSPLSLPVTPGEPASISCRSSQSLVHRNGYNYLDWYLQKPGQSPQLLIYMASKRASGVPDRFSGSGSGTEFTLKISRVEAEDVGIYYCMQALQTWTFGQGTKVEVN

These binders were tested against nAra h 3 (peanut) (assay: ELISA, antigen-coated plate (FIG. 3)).
In the case of B1, the binding is reported as “binds”.
In the case of B2, the binding is reported as “binds”.
For B3, the binding was “binds”.
With B4 the binding was “binds”.
B5 was tested, and the binding was “binds”.
In the case of B6, the binding is reported as “binds”.

Each binder was assayed against rAra h 8 (peanut) (assay: ELISA, antigen-coated plate).
In the case of B1, the binding is reported as “no binding (tested: 1000 ng/ml)”.
With B2 the binding was “no binding (tested: 1000 ng/ml)”.
For B3, the binding was “no binding (tested: 1000 ng/ml)”.
With B4 the binding was “no binding (tested: 1000 ng/ml)”.
B5 was tested, and the binding was “no binding (tested: 1000 ng/ml)”.
With B6 the binding was “no binding (tested: 1000 ng/ml)”.

Each binder was assayed against rAra h 9 (peanut) (assay: ELISA, antigen-coated plate).
B1 was tested, and the binding was “no binding (tested: 1000 ng/ml)”.
B2 was tested, and the binding was “no binding (tested: 1000 ng/ml)”.
In the case of B3, the binding is reported as “no binding (tested: 1000 ng/ml)”.
In the case of B4, the binding is reported as “no binding (tested: 1000 ng/ml)”.
In the case of B5, the binding is reported as “no binding (tested: 1000 ng/ml)”.
For B6, the binding was “no binding (tested: 1000 ng/ml)”.

Each binder was assayed against rAna3o (assay: ELISA, antigen-coated plate).
In the case of B1, the binding is reported as “no binding (tested: 1000 ng/ml)”.
B2 was tested, and the binding was “no binding (tested: 1000 ng/ml)”.
With B3 the binding was “no binding (tested: 1000 ng/ml)”.
With B4 the binding was “no binding (tested: 1000 ng/ml)”.
In the case of B5, the binding is reported as “no binding (tested: 1000 ng/ml)”.
With B6 the binding was “no binding (tested: 1000 ng/ml)”.

The binders below were run against nCor a 9 (assay: ELISA, antigen-coated plate).
In the case of B1, the binding is reported as “no binding (tested: 1000 ng/ml)”.
B2 was tested, and the binding was “no binding (tested: 1000 ng/ml)”.
In the case of B3, the binding is reported as “no binding (tested: 1000 ng/ml)”.
With B4 the binding was “no binding (tested: 1000 ng/ml)”.
For B5, the binding was “no binding (tested: 1000 ng/ml)”.
B6 was tested, and the binding was “no binding (tested: 1000 ng/ml)”.
